The list shows a part of the results.
Biological target: T1, OsSMF1 (Oryza sativa, UniProt Q6ZLB0 1-436)
T1 sequence: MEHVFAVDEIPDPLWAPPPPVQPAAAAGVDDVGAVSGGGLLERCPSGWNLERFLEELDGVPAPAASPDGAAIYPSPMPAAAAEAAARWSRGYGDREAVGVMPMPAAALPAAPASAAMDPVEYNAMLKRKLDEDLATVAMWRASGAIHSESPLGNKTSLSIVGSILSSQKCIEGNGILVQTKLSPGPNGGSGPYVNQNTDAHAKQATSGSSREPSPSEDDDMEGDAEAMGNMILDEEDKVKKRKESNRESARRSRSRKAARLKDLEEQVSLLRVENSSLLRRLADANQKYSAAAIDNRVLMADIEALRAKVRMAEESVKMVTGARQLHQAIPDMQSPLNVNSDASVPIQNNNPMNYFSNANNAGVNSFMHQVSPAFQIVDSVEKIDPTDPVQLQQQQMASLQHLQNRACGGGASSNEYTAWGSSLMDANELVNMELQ
Experiment: protein-binding microarray (RPBM); PBS, 2% BSA, 51.3 ng/ul salmon testes DNA, 50 uM zinc acetate, 200 nM TF, 25 C, 1 h; high values mean tight binding
Details: protein: recombinant; tags: N-terminal polyhistidine and DsRed monomer fusion (pET32a); chain copies: 2; label: CyDye5-dUTP incorporated in the synthesized complementary strand; 3' TTTTT single-stranded linker to array surface; dsDNA, one strand shown
Outline: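 An Axon 4000B scanner gave the binding signal as per-feature fluorescence intensity in arbitrary units. This followed washing of a custom Agilent array that had been incubated for 1 h at 25 °C with 200 nM protein in PBS, 2% BSA, salmon testes DNA and 50 µM zinc acetate. The proteins were transcription factors fused at the N-terminus to polyhistidine and DsRed, expressed in E. coli BL21-CodonPlus and purified on Ni–NTA.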

| Sequence | binding signal |
| --- | --- |
| GGGTTTATTTGGGCGGTGGGGAGAAATCCGTGGTTCGGTGCGGAGTCACCTAGTGCAG | 4140 fluorescence intensity (a.u.) |
| CTTCGTCGCTCGCCGCCTCATCAGGTATTTTCTGTTATTCCGGAGTCACCTAGTGCAG | 8380 fluorescence intensity (a.u.) |
| AGAGTAAGCAGCACACGCAAGCAAAAGCCTTGCCTTCACTCGGAGTCACCTAGTGCAG | 5410 fluorescence intensity (a.u.) |
| TGACGACAGCATAAACAGAAAGCGTGACCAGTCACCAGTGCGGAGTCACCTAGTGCAG | 4270 fluorescence intensity (a.u.) |
| TACATCCCTCCACGTCATCGATCCGCGCCGCGTGCCTTCCCGGAGTCACCTAGTGCAG | 37300 fluorescence intensity (a.u.) |
| TCCAATTTTAAAGTTTATGGATGAAATTTAGACCTTTGTGCGGAGTCACCTAGTGCAG | 18100 fluorescence intensity (a.u.) |
| GGTTTCTTCCTTGTGATTCTCTGACGTCCTGCGAGATGGTCGGAGTCACCTAGTGCAG | 3410 fluorescence intensity (a.u.) |
| CATTGCCCCTGTTGGTGAGTTGGGCAGCCATGCCGTGCGGCGGAGTCACCTAGTGCAG | 3500 fluorescence intensity (a.u.) |
| GCGCGCCGGCAGGCTGGACGAGGCGTACGCCATGGTGACCCGGAGTCACCTAGTGCAG | 3200 fluorescence intensity (a.u.) |
| ACGACTAGTCAGGGATGAGTCGGATGGATATGCTCTTTATCGGAGTCACCTAGTGCAG | 4790 fluorescence intensity (a.u.) |
| TTTGTTCGAGTTCAATGATTTACCATCGACATTGTCTCCTCGGAGTCACCTAGTGCAG | 21000 fluorescence intensity (a.u.) |
| CTCTCCTCTCTTCTCGAGCGCGGCGGCGGTGGTGGGGAGGCGGAGTCACCTAGTGCAG | 4350 fluorescence intensity (a.u.) |
| TAACATGACGCACGCGCGCGGCCGCTAACACGCTACTAGTCGGAGTCACCTAGTGCAG | 4830 fluorescence intensity (a.u.) |
| AAAACTCACACCCGTTAAGCGTGCTTACGTACAGGCGTACCGGAGTCACCTAGTGCAG | 4050 fluorescence intensity (a.u.) |
| CTAATCTAGGATTCCACATTCCGTGACAGCGCCGCCGTGCCGGAGTCACCTAGTGCAG | 3630 fluorescence intensity (a.u.) |
| ATTCCATCCAACGTGGCAATATAACATCGACACGTCACCACGGAGTCACCTAGTGCAG | 32200 fluorescence intensity (a.u.) |
| CGGGCACTGCCAGAATGTGTCCATATCCTAAGCAGCAGCCCGGAGTCACCTAGTGCAG | 3520 fluorescence intensity (a.u.) |
| TGGATACAAACTTGGGCCAAACACCTTAGTGAAACTCTGACGGAGTCACCTAGTGCAG | 3150 fluorescence intensity (a.u.) |
| CCACCACCAGCTCACGCCTCCCAAGTCCCAAGCGGCGACGCGGAGTCACCTAGTGCAG | 3200 fluorescence intensity (a.u.) |
| CCGATCGATAATTCCAACGTCGCCGTCGTCATCATTTGTCCGGAGTCACCTAGTGCAG | 7460 fluorescence intensity (a.u.) |
| CACGCTACCAAGTTATAGCAACTACGCATTGCGTTTGCCACGGAGTCACCTAGTGCAG | 3460 fluorescence intensity (a.u.) |

| Sequence | binding signal |
| --- | --- |
| TGGCCACCATGCTTGTTAATAGTATAGTAAGCAACTATTGCGGAGTCACCTAGTGCAG | 3850 fluorescence intensity (a.u.) |
| TTTAATGATCTTATAAATTGTAATGCTGATAGGTGGTTATCGGAGTCACCTAGTGCAG | 3590 fluorescence intensity (a.u.) |
| CGTGCTTCCCTAGTGTCCTCACTTGTTCAGTCCCTGTCACCGGAGTCACCTAGTGCAG | 4580 fluorescence intensity (a.u.) |
| AAATTATGCCACCTCTCCCCTGCCAACGCACCGCGCCGCCCGGAGTCACCTAGTGCAG | 3670 fluorescence intensity (a.u.) |
| CTGCCCGCACACGTGGACCACGCGTGATGACTCCCCATCGCGGAGTCACCTAGTGCAG | 11800 fluorescence intensity (a.u.) |
| TTGTGATGGTAGTACGTGGGCTGCTTTTATAGTTTGGTGGCGGAGTCACCTAGTGCAG | 4190 fluorescence intensity (a.u.) |
| CTCGGCGCGGCGGGCCCGCGATGCGCAGGTGTGCGTGTCACGGAGTCACCTAGTGCAG | 5280 fluorescence intensity (a.u.) |
| AGGCAGCGTCGTGGTGGTGACTCCGTGCTGACTCGACCGTCGGAGTCACCTAGTGCAG | 15800 fluorescence intensity (a.u.) |
| GGGAGAAATTTCCAAGAAAAGAAAATAGGAGGAAATCGTTCGGAGTCACCTAGTGCAG | 33500 fluorescence intensity (a.u.) |
| ATCATTAAATTCGAGCACAGTAATACATGCAAATAATTGTCGGAGTCACCTAGTGCAG | 36100 fluorescence intensity (a.u.) |
| TGTTGATGGCTCATTCCAGGAGAGTGACGGCAAGGGTGGTCGGAGTCACCTAGTGCAG | 3290 fluorescence intensity (a.u.) |
| GCGCGCCTTCGTTGACGTCCGCAACCGCGAGTAGTTCCTGCGGAGTCACCTAGTGCAG | 3870 fluorescence intensity (a.u.) |
| AATACCCCATACGACACCTATATAATACTCGATGACACACCGGAGTCACCTAGTGCAG | 4470 fluorescence intensity (a.u.) |
| CCATGCGGGACCGCTTCGCCGCCGCCACCTCGGCTCGGCGCGGAGTCACCTAGTGCAG | 4120 fluorescence intensity (a.u.) |
| GGGCACTCGAACCATCTAGTGCAGACGTGGTAACTGGCGCCGGAGTCACCTAGTGCAG | 5510 fluorescence intensity (a.u.) |
| ACGGAGAAGTCCCGAGACCGGCGCCGCCAGGACCGCCACCCGGAGTCACCTAGTGCAG | 44400 fluorescence intensity (a.u.) |
| GTCCATGGGCAAATTACCACGTTTATGGAGTGTTTTCCCCCGGAGTCACCTAGTGCAG | 20800 fluorescence intensity (a.u.) |
| GCTTGGAAATAGTAGGGTGGCCACACCTAAGCCAATGACTCGGAGTCACCTAGTGCAG | 3970 fluorescence intensity (a.u.) |
| ACTACTACACCTCGTGCGTGTCAGCGCCCCACACCTGTATCGGAGTCACCTAGTGCAG | 6110 fluorescence intensity (a.u.) |
| GTCTCTTACTCTTAACCCCAAGGAGTGGAAGCAAGAAGCGCGGAGTCACCTAGTGCAG | 3170 fluorescence intensity (a.u.) |
| AGACCTGGGTGCACCGCGACGTGGCCAGACGCCCCGCTCCCGGAGTCACCTAGTGCAG | 4480 fluorescence intensity (a.u.) |

3 entries picked at random from those above, as already listed:

| Sequence | binding signal |
| --- | --- |
| TGTTGATGGCTCATTCCAGGAGAGTGACGGCAAGGGTGGTCGGAGTCACCTAGTGCAG | 3290 fluorescence intensity (a.u.) |
| CTCGGCGCGGCGGGCCCGCGATGCGCAGGTGTGCGTGTCACGGAGTCACCTAGTGCAG | 5280 fluorescence intensity (a.u.) |
| AGGCAGCGTCGTGGTGGTGACTCCGTGCTGACTCGACCGTCGGAGTCACCTAGTGCAG | 15800 fluorescence intensity (a.u.) |

Reference: article PMC7819943, “Rice protein-binding microarrays: a tool to detect cis-acting elements near promoter regions in rice”
